Drawing on paper PMC3134474, this text covers binding for five substances.

Protein sequences, listed by entry. Tags and fused reporters are not part of them. Lines headed by an entry give the natural chain unless they say otherwise; changes in a name come on top. Residues count along the entry.
UniProt Q9P0J0: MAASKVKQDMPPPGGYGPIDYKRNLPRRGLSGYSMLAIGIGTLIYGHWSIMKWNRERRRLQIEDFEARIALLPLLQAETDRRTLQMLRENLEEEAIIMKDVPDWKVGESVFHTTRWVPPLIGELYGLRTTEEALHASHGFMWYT
GST-G19-Δ1 (1–35 aa): residues 1-35 of Q9P0J0
UniProt P06463: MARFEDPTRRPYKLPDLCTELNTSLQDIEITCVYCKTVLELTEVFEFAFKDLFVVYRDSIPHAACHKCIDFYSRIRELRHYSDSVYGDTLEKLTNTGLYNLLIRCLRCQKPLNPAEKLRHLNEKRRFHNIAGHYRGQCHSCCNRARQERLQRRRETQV
UniProt Q05086: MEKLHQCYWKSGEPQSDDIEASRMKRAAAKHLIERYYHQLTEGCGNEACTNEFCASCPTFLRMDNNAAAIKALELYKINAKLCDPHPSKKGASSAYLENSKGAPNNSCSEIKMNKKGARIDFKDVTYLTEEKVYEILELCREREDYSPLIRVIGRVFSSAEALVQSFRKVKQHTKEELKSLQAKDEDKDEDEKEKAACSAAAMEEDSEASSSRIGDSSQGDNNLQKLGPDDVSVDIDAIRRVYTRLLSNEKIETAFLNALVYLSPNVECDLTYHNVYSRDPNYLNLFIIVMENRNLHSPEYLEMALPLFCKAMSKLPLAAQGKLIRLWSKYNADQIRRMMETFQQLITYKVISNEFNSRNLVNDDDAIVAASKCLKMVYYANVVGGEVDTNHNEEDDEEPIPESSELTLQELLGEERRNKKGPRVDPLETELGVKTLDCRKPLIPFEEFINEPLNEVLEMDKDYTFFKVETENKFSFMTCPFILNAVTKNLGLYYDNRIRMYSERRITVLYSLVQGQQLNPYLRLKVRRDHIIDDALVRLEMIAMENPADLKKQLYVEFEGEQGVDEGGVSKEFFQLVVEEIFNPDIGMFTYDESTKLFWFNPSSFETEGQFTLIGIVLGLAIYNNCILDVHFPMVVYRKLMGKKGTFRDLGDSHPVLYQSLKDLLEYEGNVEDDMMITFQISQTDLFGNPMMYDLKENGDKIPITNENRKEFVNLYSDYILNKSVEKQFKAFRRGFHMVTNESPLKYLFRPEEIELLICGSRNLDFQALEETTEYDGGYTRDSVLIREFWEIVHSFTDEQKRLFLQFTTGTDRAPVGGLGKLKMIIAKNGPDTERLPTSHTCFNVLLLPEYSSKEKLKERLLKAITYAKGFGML
E6AP-Δ2 (287–521 aa): residues 290-524 of Q05086
E6AP-Δ3 (522–872 aa): residues 525-875 of Q05086

The target in assay [1] is GST-G19-Δ1 (1–35 aa) (human) (UniProt Q9P0J0). Briefly: pull-down; 10 µg GST fusion protein immobilised on glutathione-agarose; incubated overnight at 4°C with lysate of E. coli BL21 expressing Flag-tagged or His-tagged protein; washed with PBS with 1% Triton X-100; Western blot; only the target purified.
Assay [2] has as its target Flag-tagged HPV18 E6 protein (pET-18E6-Flag) (human papillomavirus type 18 (HPV18)) (UniProt P06463). Description: pull-down; same experiment as a5, for the pair E6AP-Δ2 and 18E6 (both added in solution to GST-GRIM-19 beads; 10 ug E6AP-Δ2).
The target in assay [3] is GRIM-19 (human (endogenous in HeLa)) (UniProt Q9P0J0). Briefly: co-IP; HeLa cell lysate; IP with anti-GRIM-19 or normal IgG, Protein G-agarose, 4°C, washed with RIPA buffer; Western blot with anti-E6AP.
The target is the same in assay [4]. Description: co-IP; lysate of HeLa cells transfected with p18E6-Flag; IP with the indicated antibodies, Protein G-agarose, 4°C, washed with RIPA buffer; Western blot.

No constants are given. Whether binding was seen depends on the method and setting. Binding seen in cells or lysates may run through a third protein. Some binding calls cover weakened binding; strength is not graded here.

“E6AP-Δ3 (522–872 aa) (from UniProt Q05086-3 522-872) (domain or fragment)”: in assay [1], the binding entry was “binds”. In the case of “E6AP-Δ2 (287–521 aa) (from UniProt Q05086-3 287-521) (domain or fragment)”, the binding entry in assay [2] is “binds”. As to “E6-associated protein (E6AP) (from UniProt Q05086 1-875)”, the binding entry in assay [3] was “binds”. For “Flag-tagged 18E6 protein (p18E6-Flag) (from UniProt P06463 1-158)”, in assay [4], the binding result is “binds”. Turning to “Flag-tagged HPV18 E6 protein (pET-18E6-Flag) (from UniProt P06463 1-158)”, the binding result in assay [1] is reported as “binds”.
